Assay [1] addresses Recombinant human TATA binding protein (ab81897, Abcam) (human). As to the kind of experiment: native MS; coreMYC pre-incubated with a 10-fold excess of EGCG (30 min, 37 C) before it was added to TBP; ammonium acetate, sample cone 50 V; both purified.
Assay [2] concerns the target TRRAP_(2038-2087) synthetic peptide. As to the kind of experiment: condition: only coreMYC pre-incubated with 150 μM EGCG; native MS; coreMYC pre-incubated with EGCG (30 min, 37 C; 150 uM in the results) before TRRAP_(2038-2087) was added; ammonium acetate, sample cone 10 V; both purified.
Assay [3] has as its target MGHis6-coreMYC (c-MYC residues 101-150) (human). Briefly: native MS; each peptide alone: coreMYC 31 uM, TRRAP peptide 30 uM, 100 mM ammonium acetate pH 7, nESI, positive mode; both purified.
The target of assay [4] is Recombinant human TATA binding protein (ab81897, Abcam) (human). Briefly: condition: only coreMYC pre-incubated with a 10-fold excess of EGCG; native MS; coreMYC pre-incubated with a 10-fold excess of EGCG (30 min, 37 C) before it was added to TBP; ammonium acetate, sample cone 50 V; both purified.
Assay [5] concerns the target TRRAP_(2038-2087) synthetic peptide. As to the kind of experiment: native MS; each peptide alone: coreMYC 31 uM, TRRAP peptide 30 uM, 100 mM ammonium acetate pH 7, nESI, positive mode; both purified.

No constants are given. Whether binding was seen depends on the method and setting. Some binding calls cover weakened binding; strength is not graded here. For some assays here: Tags and fused reporters may be left off the sequences shown.

Take MVTELLGGDMVNQSFICDPDDETFIKNIIIQDCMWSGFSAAAKLVSEKLA [MGHis6-coreMYC (c-MYC residues 101-150)]: the binding entry is on record as “binds weakly” in assay [1], “no binding” in assay [2], “no binding (tested: 31 μM)” in assay [3] and “no binding” in assay [4].

On to GVNSVSSSIKRGLSVDSAQEVKRFRTATGAISAVFGRSQSLPGADSLLAK (N-terminal acetyl (Ac-), C-terminal amide (-NH2)) [TRRAP_(2038-2087) synthetic peptide], for which, in assay [5], the binding result is “no binding (tested: 30 μM)”.

(Values after PMC10904854.)
